# Source: the supplement of paper PMC11659162
# Several values for one entry are separate records, joined by “and”; a condition that tells them apart may be missing. Equal entries are not always repeated. The list shows a part of the results. This is a noisy data set.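 The cells are a human neuroglioma line carrying a green fluorescent autophagy reporter.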
# Tested on: H4 GFP-LC3
# Test: ACBP immunofluorescence intensity (scaled to control) (AU (scaled)); higher = more intracellular ACBP/DBI
# Settings: 6 h
row,Structure (SMILES),ACBP immunofluorescence intensity
1,CSCCC(NC(=O)C(CC(C)C)NC(=O)C(Cc1c[nH]cn1)NC(=O)CNC(=O)C(NC(=O)C(C)NC(=O)C(Cc1c[nH]c2ccccc12)NC(=O)C(Cc1c[nH]cn1)NC(=O)C(CC(N)=O)NC(=O)CNC(=O)C(CCCNC(=N)N)NC(=O)C1CCCN1C(=O)C(Cc1ccc(O)cc1)NC(=O)C(CCSC)NC(=O)C(CCCCN)NC(=O)C(NC(=O)C(CC(C)C)NC(=O)C(NC(=O)C(NC(=O)CNC(=O)CNC(=O)CNC(=O)C(C)NC(=O)C1CCCN1C(=O)C(CC(C)C)NC(=O)C1CCCN1C(=O)C(N)C(C)C)C(C)O)C(C)C)C(C)O)C(C)C)C(N)=O (centres undefined) (5 µM),0.942
2,COc1ccccc1N1CCN(CCCCN2C(=O)CCC2=O)CC1 (5 µM),0.854
3,COC(=O)Nc1ccc2[nH]cc(CCNC(C)=O)c2c1 (5 µM),0.847
4,Cc1nc(N=Nc2cc(S(=O)(=O)O)c3cc([N+](=O)[O-])cc(S(=O)(=O)O)c3c2)c(COP(=O)(O)O)c(C=O)c1O (5 µM),0.996
5,O=C(OCCN1CCOCC1)C1(c2ccccc2)CCCCC1 (5 µM),0.78
6,O=C(Cc1ccccc1)Nc1nc2ccc(Cl)cc2c2nc(-c3ccco3)nn12 (5 µM),0.971
7,N[C@@H](CCS(=O)O)C(=O)O (5 µM),0.802
8,CCN(CC)CCOCCOC(=O)C1(c2ccccc2)CCCC1 (5 µM),0.947
9,c1ccc(CN2CCC3(CCc4ccccc43)CC2)cc1 (5 µM),0.758
10,N[C@@H](CC(=O)O)C(=O)O (5 µM),0.455 and 0.863
11,N=C(N)NC(=O)Cc1c(Cl)cccc1Cl (5 µM),0.927
12,c1nc(CC2CCNCC2)c[nH]1 (5 µM),0.923
13,COc1cc2nc(N3CCN(C(=O)c4ccco4)CC3)nc(N)c2cc1OC (5 µM),0.85
14,CC(N)(C(=O)O)c1ccc(-c2nnn[nH]2)cc1 (racemic) (5 µM),0.827
15,CCC(N)(C(=O)O)c1ccc(C(=O)O)cc1 (racemic) (5 µM),0.932
16,CC(C)NCC(O)c1ccc(O)c(O)c1 (racemic) (5 µM),0.888
17,O=C(Nc1ccccc1)C12CC1C(=NO)c1ccccc1O2 (centres undefined) (5 µM),0.955
18,CN1CCN(C2=Nc3cc(Cl)ccc3Nc3ccccc32)CC1 (5 µM),0.975
19,CCCCCCN(CCCCCC)C(=O)Cc1c(-c2ccc(F)cc2)[nH]c2ccccc12 (5 µM),0.994

row,Structure (SMILES),ACBP immunofluorescence intensity
1,CC(=O)OCC[N+](C)(C)C (5 µM),0.766 and 0.998
2,CC(C)NCC(O)COc1cccc2[nH]ccc12 (centres undefined) (5 µM),0.939
3,c1ccc(N2CCN(CCCOc3ccc4c(c3)OCO4)CC2)cc1 (5 µM),0.998
4,Nc1ncnc2c1ncn2[C@@H]1O[C@H](COP(=O)(O)OP(=O)(O)O)[C@@H](O)[C@H]1O (5 µM),0.998
5,Cc1ccc(N(CC2=NCCN2)c2cccc(O)c2)cc1 (5 µM),0.864
6,CN1CCC(=C2c3ccccc3CCc3sccc32)CC1 (5 µM),0.903
7,Cn1c(=O)c2c(ncn2C)n(C)c1=O (5 µM),1
8,CN(CCc1ccc(Cl)c(Cl)c1)CCN1CCCC1 (5 µM),0.944
9,N[C@@H](CSS(=O)(=O)O)C(=O)O (5 µM),0.995
10,NC(=O)OCC(COC(N)=O)c1ccccc1 (5 µM),0.957
11,CCC1(c2ccccc2)C(=O)NCNC1=O (5 µM),0.924
12,CCCCCCN(CCCCCC)C(=O)Cc1c(-c2ccc(Cl)cc2)[nH]c2ccc(Cl)cc12 (5 µM),0.984
13,C[C@]12C[C@H](O)[C@H]3[C@@H](CCC4=CC(=O)CC[C@@]43C)[C@@H]1CC[C@@H]2C(=O)CO (5 µM),0.785
14,C[C@@](N)(C(=O)O)c1ccc(C(=O)O)cc1 (5 µM),0.8
15,CN(C)CCOC(c1ccccc1)c1ccccc1 (5 µM),0.95
16,N[C@H](CCC(=O)O)C(=O)O (5 µM),0.728
17,C/N=C(/NC#N)NCCSCc1csc(NC(=N)N)n1 (5 µM),0.965
18,CC(C[N+](C)(C)C)OC(N)=O (centres undefined) (5 µM),0.965

# Same assay, conditions: 24 h
row,Structure (SMILES),ACBP immunofluorescence intensity
1,CSCCC(NC(=O)C(CC(C)C)NC(=O)C(Cc1c[nH]cn1)NC(=O)CNC(=O)C(NC(=O)C(C)NC(=O)C(Cc1c[nH]c2ccccc12)NC(=O)C(Cc1c[nH]cn1)NC(=O)C(CC(N)=O)NC(=O)CNC(=O)C(CCCNC(=N)N)NC(=O)C1CCCN1C(=O)C(Cc1ccc(O)cc1)NC(=O)C(CCSC)NC(=O)C(CCCCN)NC(=O)C(NC(=O)C(CC(C)C)NC(=O)C(NC(=O)C(NC(=O)CNC(=O)CNC(=O)CNC(=O)C(C)NC(=O)C1CCCN1C(=O)C(CC(C)C)NC(=O)C1CCCN1C(=O)C(N)C(C)C)C(C)O)C(C)C)C(C)O)C(C)C)C(N)=O (centres undefined) (5 µM),0.788
2,COc1ccccc1N1CCN(CCCCN2C(=O)CCC2=O)CC1 (5 µM),0.56
3,COC(=O)Nc1ccc2[nH]cc(CCNC(C)=O)c2c1 (5 µM),0.448
4,Cc1nc(N=Nc2cc(S(=O)(=O)O)c3cc([N+](=O)[O-])cc(S(=O)(=O)O)c3c2)c(COP(=O)(O)O)c(C=O)c1O (5 µM),0.701
5,O=C(OCCN1CCOCC1)C1(c2ccccc2)CCCCC1 (5 µM),0.617
6,O=C(Cc1ccccc1)Nc1nc2ccc(Cl)cc2c2nc(-c3ccco3)nn12 (5 µM),0.65
7,N[C@@H](CCS(=O)O)C(=O)O (5 µM),0.47
8,CCN(CC)CCOCCOC(=O)C1(c2ccccc2)CCCC1 (5 µM),0.845
9,c1ccc(CN2CCC3(CCc4ccccc43)CC2)cc1 (5 µM),0.559
10,N[C@@H](CC(=O)O)C(=O)O (5 µM),0.829 and 0.761
11,N=C(N)NC(=O)Cc1c(Cl)cccc1Cl (5 µM),0.456
12,c1nc(CC2CCNCC2)c[nH]1 (5 µM),0.631
13,COc1cc2nc(N3CCN(C(=O)c4ccco4)CC3)nc(N)c2cc1OC (5 µM),0.514
14,CC(N)(C(=O)O)c1ccc(-c2nnn[nH]2)cc1 (racemic) (5 µM),0.557
15,CCC(N)(C(=O)O)c1ccc(C(=O)O)cc1 (racemic) (5 µM),0.555
16,CC(C)NCC(O)c1ccc(O)c(O)c1 (racemic) (5 µM),0.562
17,O=C(Nc1ccccc1)C12CC1C(=NO)c1ccccc1O2 (centres undefined) (5 µM),0.729
18,CN1CCN(C2=Nc3cc(Cl)ccc3Nc3ccccc32)CC1 (5 µM),0.436
19,CCCCCCN(CCCCCC)C(=O)Cc1c(-c2ccc(F)cc2)[nH]c2ccccc12 (5 µM),0.967

row,Structure (SMILES),ACBP immunofluorescence intensity
1,CC(=O)OCC[N+](C)(C)C (5 µM),0.777 and 0.907
2,CC(C)NCC(O)COc1cccc2[nH]ccc12 (centres undefined) (5 µM),0.622
3,c1ccc(N2CCN(CCCOc3ccc4c(c3)OCO4)CC2)cc1 (5 µM),0.885
4,Nc1ncnc2c1ncn2[C@@H]1O[C@H](COP(=O)(O)OP(=O)(O)O)[C@@H](O)[C@H]1O (5 µM),0.669
5,Cc1ccc(N(CC2=NCCN2)c2cccc(O)c2)cc1 (5 µM),0.581
6,CN1CCC(=C2c3ccccc3CCc3sccc32)CC1 (5 µM),0.565
7,Cn1c(=O)c2c(ncn2C)n(C)c1=O (5 µM),0.896
8,CN(CCc1ccc(Cl)c(Cl)c1)CCN1CCCC1 (5 µM),0.846
9,N[C@@H](CSS(=O)(=O)O)C(=O)O (5 µM),0.891
10,NC(=O)OCC(COC(N)=O)c1ccccc1 (5 µM),0.807
11,CCC1(c2ccccc2)C(=O)NCNC1=O (5 µM),0.507
12,CCCCCCN(CCCCCC)C(=O)Cc1c(-c2ccc(Cl)cc2)[nH]c2ccc(Cl)cc12 (5 µM),0.955
13,C[C@]12C[C@H](O)[C@H]3[C@@H](CCC4=CC(=O)CC[C@@]43C)[C@@H]1CC[C@@H]2C(=O)CO (5 µM),0.74
14,C[C@@](N)(C(=O)O)c1ccc(C(=O)O)cc1 (5 µM),0.437
15,CN(C)CCOC(c1ccccc1)c1ccccc1 (5 µM),0.56
16,N[C@H](CCC(=O)O)C(=O)O (5 µM),0.641
17,C/N=C(/NC#N)NCCSCc1csc(NC(=N)N)n1 (5 µM),0.475
18,CC(C[N+](C)(C)C)OC(N)=O (centres undefined) (5 µM),0.876
